Results reported in the supplement of paper PMC8007513.
This is one part of the list. Single values are uncertain, as repeats are few or missing.

What follows are molecules tested on Saccharomyces cerevisiae BY4743 (assay: growth (OD600) relative to untreated control; higher = less growth inhibition). Conditions: compound concentration: 133 uM; 20 h.
Procedure: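 NMCCC compounds (133 uM, no IPBC) tested alone against Saccharomyces cerevisiae BY4743 in YPD, 96-well plates, starting OD600 ~0.1. Growth was read as OD600 at 20 h and expressed as % of the untreated control. Single pass.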
ClC1=CC=CC(=C1)NC(=O)CS\C2=N\C(=O)CC(N2)C3=CC=CC=C3 (stereo not drawn) showed a growth of 99.2%.
CC(NC(=O)CN1\N=N/C2=CC=CC=C2C1=O)C3=CC=CC(=C3)Cl (stereo not drawn) showed a growth of 111%.
For CCN(c1ccc(-c2csc(N3CCN(C)CC3)n2)cc1)S(C)(=O)=O, the growth was 105%.
With COCCN(Cc1cccs1)S(=O)(=O)c1ccc(-c2cc(C(F)(F)F)on2)s1 the growth was 84.7%.
In the case of CCCNC(=O)CSc1nnc(-c2ccc(NC(C)=O)cc2)n1-c1ccccc1, the growth is reported as 102%.
For CCOc1ccc(C(=O)NC(c2ccc(C)cc2)c2cccnc2)cc1 (stereo not drawn), the growth was 108%.
In the case of CCOc1ccc(CNc2nc3nc(C)c(C)c(O)n3n2)cc1, the growth is reported as 109%.
CCc1cc2c(SC(C(N)=O)c3ccc(F)cc3)ncnc2s1 (stereo not drawn) showed a growth of 95.1%.
In the case of CS(=O)(=O)N1CCC(C(=O)Nc2cc(-c3cc(Br)ccc3Cl)[nH]n2)CC1, the growth is reported as 106%.
With CCN1\C=C(\C#N)C(=O)N(CC(=O)NC2=CC=C(C)C=C2Cl)C1=O the growth was 91.1%.
Molecule COC(=O)COc1ccc(NC(=O)c2ccc(O)nn2)cc1 has a growth of 99.3%.
CCOC(=O)c1sc(NC(=O)c2nc3nccc(C)n3n2)nc1C gave a growth of 96.7%.
COCc1cc(O)n2nc(NC(C)=O)nc2n1 showed a growth of 106%.
With CCOC(=O)CNC(=O)C1CCCc2c1[nH]c1ccc(Cl)cc21 (stereo not drawn) the growth was 105%.
In the case of COc1ccc(CNS(=O)(=O)c2cc3nc(O)c(O)nc3cc2C)cc1, the growth is reported as 100%.
With CCC(=O)Nc1ccc(S(=O)(=O)N2CCN(C)c3ccccc32)cc1 the growth was 103%.
In the case of COC(=O)c1ccc(N2CCCC2)c(NC(=O)N(C)Cc2ccc(OC)cc2OC)c1, the growth is reported as 103%.
Molecule O=C(NCCc1cccs1)c1cc(O)nc2ccccc12 has a growth of 99.8%.
CCCCC(=O)Nc1cc(O)nc2nc(-c3ccc(Cl)cc3)nn12 showed a growth of 87.2%.
Molecule CCCN(CCC)C(=O)CN1\N=C/C2=C(C)[N](CC3=CC=CC=C3)C(=C2C1=O)C has a growth of 110%.
Molecule Cc1nn(C)c(C)c1CNC(=O)C1C2CCC(O2)C1C(=O)O (stereo not drawn) has a growth of 102%.
O=C(NCc1ccc(F)cc1)c1sccc1S(=O)(=O)NC1CC1 was tested, and the growth was 109%.
Cc1nc2ccccc2n1CCNC(=O)c1ccccc1Cl showed a growth of 101%.
